Binding data for 1 molecule are collected here from patent publication US20110206704A1, “Methods and compositions for modulating hepatocyte growth factor activator” (Genentech, Inc., priority 2009, published 2011).

These are yes or no findings as the source states them, for the method shown. Some binding calls cover weakened binding; strength is not graded here. Sequences can lack the tags named with a protein.

The assay addresses T1, HGFA (Val373-Ser655 plus tag …) (human, UniProt Q04756 373-655).
T1 sequence: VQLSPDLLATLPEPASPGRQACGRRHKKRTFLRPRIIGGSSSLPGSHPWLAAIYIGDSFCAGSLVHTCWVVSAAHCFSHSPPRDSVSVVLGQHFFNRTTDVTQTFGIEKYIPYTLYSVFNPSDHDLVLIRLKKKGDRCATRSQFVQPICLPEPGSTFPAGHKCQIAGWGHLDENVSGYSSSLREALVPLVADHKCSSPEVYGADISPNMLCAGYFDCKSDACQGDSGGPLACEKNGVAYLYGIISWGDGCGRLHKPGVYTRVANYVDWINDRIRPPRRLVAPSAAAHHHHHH
Briefly: SPR (BIAcore) competition: HGFA with KD1 at 0, 2.5 or 10 nM injected over immobilized Ab40 (competitor: Ab40). On the technique in general: In SPR one partner is held on a chip, and binding of the other changes the refractive index at the surface.

B1: KD1 (Kunitz domain-1 of HGFA inhibitor-1) (protein, UniProt O43278 246-303, looked up)
chain: TEDYCLASNKVGRCRGSFPRWYYDPTEQICKSFVYGGCLGNKNNYLREEECILACRGV
modifications: biotinylated in the competition ELISA
On to B1, for which the binding result is recorded as “binds”.
